Drawing on publication PMC5602674, this text covers binding for two molecules.

Amino acid sequences for entries named in this document (tags omitted).
UniProt P23772: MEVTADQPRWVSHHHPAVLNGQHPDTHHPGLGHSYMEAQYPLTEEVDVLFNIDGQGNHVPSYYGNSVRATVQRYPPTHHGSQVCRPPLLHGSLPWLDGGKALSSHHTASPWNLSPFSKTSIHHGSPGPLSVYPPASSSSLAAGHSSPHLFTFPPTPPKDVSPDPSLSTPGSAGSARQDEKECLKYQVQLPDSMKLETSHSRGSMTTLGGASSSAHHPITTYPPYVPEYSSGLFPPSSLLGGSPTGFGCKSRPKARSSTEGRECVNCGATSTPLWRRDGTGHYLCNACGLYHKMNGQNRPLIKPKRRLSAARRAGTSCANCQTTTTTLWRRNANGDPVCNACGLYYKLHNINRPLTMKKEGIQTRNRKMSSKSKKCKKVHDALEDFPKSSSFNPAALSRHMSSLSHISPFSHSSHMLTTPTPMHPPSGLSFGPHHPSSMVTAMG

The target in this test is p62 (mouse (endogenous in TH9 cells)) (UniProt Q64337). Kind of test: proximity ligation; Duolink in situ PLA on fixed, permeabilised TH9 cells after 24 h of differentiation; endogenous proteins; control antibodies gave no foci.

No constants are given. Whether binding was seen depends on the method and setting. In cells and extracts the contact can be indirect.

As to GATA-3 (from UniProt P23772 1-443), the binding entry is recorded as “no binding”.

B1: Stat6 (protein, UniProt P52633 1-837)
chain: MSLWGLISKMSPEKLQRLYVDFPQRLRHLLADWLESQPWEFLVGSDAFCYNMASALLSATVQRLQATAGEQGKGNSILPHISTLESIYQRDPLKLVATIRQILQGEKKAVIEEFRHLPGPFHRKQEELKFTTALGRLQHRVRETRLLRESLQQGAKTGQVSLQNLIDPPVNGPGPSEDLATMLQGTVGDLEATQALVLKRIQIWKRQQQLAGNGTPFEESLAGLQERCESLVEIYSQLQQEIGAASGELEPKTRASLISRLDEVLRTLVTSSFLVEKQPPQVLKTQTKFQAGVRFLLGLQFLGTSAKPPMVRADMVTEKQARELSLAQGPGTGVESTGEIMNNTVPLENSIPSNCCSALFKNLLLKKIKRCERKGTESVTEEKCAVLFSTSFTLGPNKLLIQLQALSLPLVVIVHGNQDNNAKATILWDNAFSEMDRVPFVVAERVPWEKMCETLNLKFMAEVGTSRGLLPEHFLFLAQKIFNDNSLSVEAFQHRCVSWSQFNKEILLGRGFTFWQWFDGVLDLTKRCLRSYWSDRLIIGFISKQYVTSLLLNEPDGTFLLRFSDSEIGGITIAHVIRGQDGSSQIENIQPFSAKDLSIRSLGDRIRDLAQLKNLYPKKPKDEAFRSHYKPEQMGKDGRGYVSTTIKMTVERDQPLPTPEPQMPAMVPPYDLGMAPDASMQLSSDMGYPPQSIHSFQSLEESMSVLPSFQEPHLQMPPNMSQITMPFDQPHPQGLLQCQSQEHAVSSPEPMLCSDVTMVEDSCLTQPVGGFPQGTWVSEDMYPPLMPPTEQDLTKLLLENQGEAGGSLGSQPLLQPSPYGQSGISLSHLDLRTNPSW
Take B1: the binding result is on record as “no binding”.
